The source of these data is PMC8569681, “New Pyrimidine and Pyridine Derivatives as Multitarget Cholinesterase Inhibitors: Design, Synthesis, and In Vitro and In Cellulo Evaluation” (ACS Chemical Neuroscience, 2021).

What all share (assay type): physicochemical
Data set [1] can be described thus: Chelation of Cu^2+, UV–vis titration and Job's plot. The following applies: Job's plot, MeOH.
The nature of data set [2]: Chelation of Fe^3+, UV–vis titration and Job's plot. The following applies: Job's plot; for X1, mole fraction of ligand causing maximum variation of absorbance / n1, number of ligand molecules per cation: first complex; for X2, mole fraction of ligand / n2, number of ligand molecules per cation: second complex; for X, mole fraction of ligand causing maximum variation of absorbance / n, number of ligand molecules per cation: MeOH.

Data set [3] in a line: Chelation of Zn^2+, UV–vis spectra. The settings on record: UV–vis spectrum, excess of metal.

Entries after “also recorded” stand apart in the source; their conditions may differ.

Take `COc1cc(CNCCCCCCNc2ccccn2)ccc1O` [Compound 30, 2-Methoxy-4-(((6-(pyridin-2-ylamino)hexyl)amino)methyl)phenol]: in data set [1], the “X, mole fraction of ligand causing maximum variation of absorbance” value (“X, mole fraction” below) was determined as 0.50 and the “n, number of ligand molecules per cation” value is reported as 1. Further, in data set [2], the “X1, mole fraction of ligand causing maximum variation of absorbance” value (“X1, mole fraction” for short) is on record as “X1 = 0.53”; the “n1, number of ligand molecules per cation” value (from here on “n1, number … per cation”) is listed as “n1 = 1”; the “X2, mole fraction of ligand” value was “X2 = 0.74”; the “n2, number of ligand molecules per cation” value (“n2, number … per cation” below) is reported as “n2 = 3”.

In the case of `Oc1cccc(CNCCCCCCNc2ncccn2)c1` [Compound 19, 3-(((6-(Pyrimidin-2-ylamino)hexyl)amino)methyl)phenol], in data set [1], the “X, mole fraction” value was determined as 0.51 and the “n, number of ligand molecules per cation” value was determined as 1. Moreover, in data set [2], the “X, mole fraction” value was determined as 0.68 and the “n, number of ligand molecules per cation” value came out at 2.

On to `c1ccc(CNCCCCCCNc2ccccn2)cc1` [Compound 25, N^1-Benzyl-N^6-(pyridin-2-yl)hexane-1,6-diamine], for which, in data set [1], the “X, mole fraction” value is recorded as 0.44 and the “n, number of ligand molecules per cation” value was determined as 1.

Turning to `Oc1cccc(CNCCCCCCNc2ncccn2)c1O` [Compound 20, 3-(((6-(Pyrimidin-2-ylamino)hexyl)amino)methyl)benzene-1,2-diol], in data set [1], the “X, mole fraction” value was 0.53 and the “n, number of ligand molecules per cation” value is reported as 1. Further, the “ability to chelate Zn^2+” value in data set [3] is given as “chelating capacity; also recorded: chelating ability”. In data set [2], the “X1, mole fraction” value was “X1 = 0.53”; the “n1, number … per cation” value is “n1 = 1”; the “X2, mole fraction of ligand” value is listed as “X2 = 0.80”; the “n2, number … per cation” value is listed as “n2 = 4”.

Consider `COc1ccccc1CNCCCCCCNc1ccccn1` [Compound 28, N^1-(2-Methoxybenzyl)-N^6-(pyridin-2-yl)hexane-1,6-diamine], for which, in data set [1], the “X, mole fraction” value is reported as 0.53 and the “n, number of ligand molecules per cation” value is recorded as 1. In data set [2], the “X1, mole fraction” value is “X1 = 0.53”; the “n1, number … per cation” value is listed as “n1 = 1”; the “X2, mole fraction of ligand” value is “X2 = 0.74”; the “n2, number … per cation” value was “n2 = 3”.

In the case of `COc1cc(CNCCCCCCNc2ncccn2)ccc1O` [Compound 18, 2-Methoxy-4-(((6-(pyrimidin-2-ylamino)hexyl)amino)methyl)phenol], in data set [1], the “X, mole fraction” value is 0.70 and the “n, number of ligand molecules per cation” value was determined as 2. Also, in data set [2], the “X, mole fraction” value is 0.69 and the “n, number of ligand molecules per cation” value worked out at 2.
